Test results from publication PMC11705638.
Results are given in words; binding and its absence hold for the method and conditions named. For part of these data: In cells and extracts the contact can be indirect. Some entries that bind do so weakly or less than the wild type. For part of these data: Where a sequence is shown, tags or fusion partners need not be part of it.

Experiments:
[1] = target: T1, HA-SIRT2 (human sirtuin 2 with a C-terminal HA tag) (human) (UniProt Q8IXJ6); assay: co-IP; HEK293T cells transfected with HA-SIRT2 and Flag-CPT2; lysis buffer 20 mM Tris-HCl pH 8.0, 100 mM NaCl, 1 mM EDTA, 0.5% NP-40; IP with anti-HA or anti-Flag, normal IgG as control; protein A/G magnetic beads; western blot
T1 sequence: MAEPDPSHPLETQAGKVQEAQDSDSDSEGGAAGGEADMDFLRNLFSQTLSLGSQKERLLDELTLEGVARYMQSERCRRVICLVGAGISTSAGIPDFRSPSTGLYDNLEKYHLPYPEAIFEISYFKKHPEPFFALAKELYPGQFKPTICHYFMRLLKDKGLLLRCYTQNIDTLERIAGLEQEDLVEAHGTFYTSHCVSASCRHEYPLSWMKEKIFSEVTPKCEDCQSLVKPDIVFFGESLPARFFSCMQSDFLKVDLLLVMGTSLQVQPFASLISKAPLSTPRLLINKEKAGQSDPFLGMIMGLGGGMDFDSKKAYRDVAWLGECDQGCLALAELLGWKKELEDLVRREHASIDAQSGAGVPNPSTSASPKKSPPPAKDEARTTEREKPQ

[2] = target: T2, SIRT2 (endogenous, AC16 cells) (human (endogenous in AC16)) (UniProt Q8IXJ6); assay: co-IP; lysates of AC16 cells, endogenous proteins; IP with anti-SIRT2 or anti-CPT2; lysis buffer 20 mM Tris-HCl pH 8.0, 100 mM NaCl, 1 mM EDTA, 0.5% NP-40; protein A/G magnetic beads; western blot
T2 sequence: T1 sequence

GST-SIRT2 fusion protein = target: T3, GST-SIRT2 fusion protein (UniProt Q8IXJ6); assay: pull-down; in vitro; GST fusion proteins on beads incubated with NP40 containing Myc/Flag-CPT2 overnight at 4°C, washed three times with NP40; western blot; both purified
T3 sequence: T1 sequence

B1: Flag-CPT2 (human carnitine palmitoyltransferase 2 with an N-terminal FLAG tag) (enzyme, UniProt P23786 26-658)
chain: SAGSGPGQYLQRSIVPTMHYQDSLPRLPIPKLEDTIRRYLSAQKPLLNDGQFRKTEQFCKSFENGIGKELHEQLVALDKQNKHTSYISGPWFDMYLSARDSVVLNFNPFMAFNPDPKSEYNDQLTRATNMTVSAIRFLKTLRAGLLEPEVFHLNPAKSDTITFKRLIRFVPSSLSWYGAYLVNAYPLDMSQYFRLFNSTRLPKPSRDELFTDDKARHLLVLRKGNFYIFDVLDQDGNIVSPSEIQAHLKYILSDSSPAPEFPLAYLTSENRDIWAELRQKLMSSGNEESLRKVDSAVFCLCLDDFPIKDLVHLSHNMLHGDGTNRWFDKSFNLIIAKDGSTAVHFEHSWGDGVAVLRFFNEVFKDSTQTPAVTPQSQPATTDSTVTVQKLNFELTDALKTGITAAKEKFDATMKTLTIDCVQFQRGGKEFLKKQKLSPDAVAQLAFQMAFLRQYGQTVATYESCSTAAFKHGRTETIRPASVYTKRCSEAFVREPSRHSAGELQQMMVECSKYHGQLTKEAAMGQGFDRHLFALRHLAAAKGIILPELYLDPAYGQINHNVLSTSTLSSPAVNLGGFAPVVSDGFGVGYAVHDNWIGCNVSSYPGRNAREFLQCVEKALEDMFDALEGKSIKS
Q: B1 was tested. Which binding [1] did it give?
A: binds

B2: CPT2 (endogenous, AC16 cells) (enzyme, UniProt P23786 26-658)
chain: B1 chain
Q: Which binding [2] does the source give for B2 here?
A: binds

B3: Myc/Flag-CPT2 (enzyme, UniProt P23786 26-658)
chain: B1 chain
Q: Which binding (GST-SIRT2 fusion protein) does the source give for B3 here?
A: binds
